Test results taken from PubChem BioAssay AID1487 (National Center for Advancing Translational Sciences (NCATS), 2009).
The list shows a part of the results. These are further read-outs of the screen, such as a control signal, another cell line or another target. No call is given for them. Most of these compounds were active or inconclusive in the main read-out, so they are no random draw. The note in brackets gives the kind of curve behind each potency; many fits are weak.

Experiment: qHTS Assay for Modulators of Lamin A Splicing
Settings: HeLa LMNA splicing GFP/RFP minigene ratio, 48 h
How it was run: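 S3 HeLa stable clones carrying a lamin A-EGFP splicing minigene plus DsRed2 were seeded at 600 cells/well in Opti-MEM with 2% FBS, pin-dosed and incubated 48 h at 37°C. Acumen cytometry (488 nm) gave the GFP/RFP total-intensity ratio.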

[1] = measured here: RFP viability control channel
[2] = measured here: GFP splicing reporter channel

Structure (SMILES)	AC50 [1]	AC50 [2]
CCOC(=O)c1cc2sccc2n1CC(=O)Nc1ccc(OC)cc1	3.16 µM [rising, single point]	–
Cc1cc(Nc2cccc(Cl)c2)nc2ccc(NC(=O)c3cccnc3)cc12	11.2 µM [falling, partial curve]	10 µM [falling, partial curve]
COC(=O)NNC1=CC(=O)CC(C)(C)C1	0.01 µM [falling, full curve, poor fit]	–
O=C(Cc1n[nH]c(=O)c2ccccc12)OCC(=O)c1ccc2c(c1)OCCO2	1.58 µM [rising, partial curve]	–
O=C(Nc1ccncc1)C1CC1c1ccccc1 (stereo not given)	11.2 µM [rising, partial curve]	–
COC(=O)c1c(NC(=O)CN2CCC3(O)CCCCC3C2c2ccc(OC)cc2OC)sc(C)c1C (stereo not given)	11.2 µM [rising, partial curve]	–
COc1ccc(C)cc1NC(=O)C(NC(=O)c1cc(OC)c(OC)c(OC)c1)C(C)C (stereo not given)	6.31 µM [falling, single point]	–
CCCCCCSc1nsc(N)n1	–	15.8 µM [rising, single point]
O=C1CCN(Cc2nc(-c3ccc(Cl)cc3)no2)CCN1	0.708 µM [falling, full curve, poor fit]	0.0398 µM [falling, full curve]
O=C(Cc1cccc(C(F)(F)F)c1)NCc1ccc(Cl)cc1Cl	5.01 µM [falling, single point]	–
O=C(CCc1ccc(Oc2cc([N+](=O)[O-])cc([N+](=O)[O-])c2)cc1)N1CCCCC1	25.1 µM [rising, single point]	–
O[C@@H]1[C@@H]2c3cc4c(cc3CN3CCC(=C[C@@H]1O)[C@H]23)OCO4	3.55 µM [falling, partial curve]	4.47 µM [falling, partial curve]
COC(=O)CCC(=O)OC1(C)C(=O)C2=CN(Cc3ccco3)C(c3ccc(OC)cc3)=CC2=C(Br)C1=O (stereo not given)	–	1.26 µM [rising, single point]
CC(C)COc1ccc(C(=O)CCN2CCCCC2)cc1	11.2 µM [rising, partial curve, poor fit]	12.6 µM [rising, partial curve, poor fit]
N#Cc1nc(-c2ccco2)oc1N1CCN(c2ccccc2)CC1	15.8 µM [rising, single point]	–
COc1cccc(NC(=O)CSc2nnc3cc(C)nc(N)n23)c1	0.316 µM [falling, full curve]	–
N#CC1=C(N)OC2=C(CCc3ccccc32)C1c1ccccc1Cl (stereo not given)	3.98 µM [rising, partial curve]	–
COc1ccc(-c2[nH]ncc2N=Nc2ccccc2)cc1	31.6 µM [falling, partial curve]	28.2 µM [falling, partial curve]
CCCOc1nc2c(c(=O)n(C)c(=O)n2C)n1Cc1cccc2ccccc12	3.98 µM [rising, full curve]	2.24 µM [rising, partial curve]

Shown with each value named: entries from further up
O=C1CCN(Cc2nc(-c3ccc(Cl)cc3)no2)CCN1
  AC50 [1]: 0.708 µM [falling, full curve, poor fit]
  AC50 [2]: 0.0398 µM [falling, full curve]
CCCOc1nc2c(c(=O)n(C)c(=O)n2C)n1Cc1cccc2ccccc12
  AC50 [1]: 3.98 µM [rising, full curve]
  AC50 [2]: 2.24 µM [rising, partial curve]

(further entries)

Structure (SMILES)	AC50 [1]	AC50 [2]
Cc1ccc(OCC(=O)OCc2cc(=O)n3nc(-c4cccs4)sc3n2)cc1	–	0.0708 µM [falling, partial curve]
CCC(C)OC(=O)c1[nH]c2c(c1C)C(=O)CC(c1ccc(N(C)C)cc1)C2 (stereo not given)	35.5 µM [rising, single point]	–
CN(C)/C=C1/Sc2ccccc2C1=O	–	2 µM [rising, partial curve, poor fit]
COc1ccc(C(=O)NCCSc2ccccc2)cc1OC	–	0.501 µM [falling, full curve, poor fit]
COc1ccccc1NC(=O)NCc1ccccc1F	–	0.112 µM [rising, full curve, poor fit]
O=C(/C=C1\NC2(CCCC2)Cc2ccccc21)C(=O)N/N=C/c1ccccc1O	2.24 µM [rising, full curve, poor fit]	–
Cn1cc(S(=O)(=O)c2ccc(Cl)cc2)c(=O)c2cc(F)c(N3CCCC3)cc21	25.1 µM [falling, partial curve]	0.0398 µM [falling, full curve]
CCCC1Cc2c(sc(N)c2C#N)CO1 (stereo not given)	–	0.158 µM [rising, full curve, poor fit]
Cc1ccc(NS(=O)(=O)c2ccc(NC(=O)c3ccc(Br)o3)cc2)c(C)c1	11.2 µM [rising, partial curve]	–
Cc1sc2nc(CN3CCCCC3)nc(Cl)c2c1C	22.4 µM [rising, partial curve, poor fit]	–
C[C@H](Cc1ccc(O)c(O)c1)[C@@H](C)Cc1ccc(O)c(O)c1	7.94 µM [falling, partial curve, poor fit]	4.47 µM [falling, full curve, poor fit]
O=C(C1CCC1)N1CCCc2cc(S(=O)(=O)Nc3ccc(F)cc3)ccc21	–	0.0501 µM [falling, full curve, poor fit]
Cc1cccc(CNC(=O)CCCN2C(=O)CCn3nc(-c4cn(C)c5ccccc45)cc32)c1	0.158 µM [falling, full curve, poor fit]	1.41 µM [falling, full curve, poor fit]
O=C(Nc1nc(-c2ccc(Cl)cc2)cs1)NC1CCCCC1	31.6 µM [rising, single point]	22.4 µM [rising, single point]
COc1ccc(OC)c(C2CC(=O)OC3=C2C(=O)CC(C)(C)C3)c1 (stereo not given)	14.1 µM [rising, single point]	1 µM [rising, partial curve]
O=C(CSc1nnc(SCc2cccc3ccccc23)s1)N/N=C/c1c[nH]c2ccccc12	1.26 µM [rising, partial curve]	–
O=C(C[n+]1cn(C(F)F)c2ccccc21)c1ccc(OC(F)F)cc1	35.5 µM [falling, partial curve, poor fit]	22.4 µM [falling, single point]
CC/C(=N\NC(=O)CCC(=O)NCc1ccccc1)c1ccc(O)cc1	–	0.891 µM [falling, partial curve, poor fit]
FC(F)(F)c1cnc(NNC(=S)Nc2ccc(Cl)cc2)c(Cl)c1	3.98 µM [rising, full curve]	2.82 µM [rising, full curve, poor fit]

Structure (SMILES)	AC50 [1]	AC50 [2]
CC(C)(C)c1ccc(S(=O)(=O)N2CCN(CCC#N)CC2)cc1	10 µM [rising, partial curve, poor fit]	–
CCc1ccc(Nc2ccc(S(=O)(=O)N3CCOCC3)cc2[N+](=O)[O-])cc1	15.8 µM [rising, partial curve]	10 µM [rising, partial curve]
Cc1ccc(C(=O)CCC(=O)Nc2ccc(Cl)c(S(=O)(=O)Nc3cccc(Cl)c3)c2)cc1	8.91 µM [rising, partial curve, poor fit]	–
COc1ccc(CC2(C)OC(c3ccc(Cl)cc3)=NN2C(C)=O)cc1 (stereo not given)	31.6 µM [rising, single point]	35.5 µM [rising, single point]
COc1ccc(OC)c(Nc2ncnc3c2cnn3-c2ccc(C)cc2)c1	–	0.00708 µM [falling, full curve, poor fit]
NCCc1ccc(O)c(O)c1	5.62 µM [falling, single point]	–
COc1cc(OC)cc(C(=O)Nc2ccc3c(c2)N(C2CCCC2)C(=O)c2ccccc2S3)c1	2.82 µM [rising, full curve]	15.8 µM [falling, partial curve, poor fit]
Cc1sc2c(c1C)C(=O)NC(c1cccc(O)c1)N2 (stereo not given)	2.24 µM [falling, partial curve, poor fit]	–
O=C(NCc1ccc2c(c1)OCO2)C1CCN(S(=O)(=O)N2CCCCC2)CC1	–	20 µM [rising, partial curve, poor fit]
CC(=O)c1cn(C)c(=O)[nH]c1=O	–	0.501 µM [falling, full curve, poor fit]
FC(F)Sc1ccc(NC(=S)NCc2ccccc2)cc1	17.8 µM [rising, single point]	–
O=C(CSc1nnc(-c2cccnc2)n1Cc1ccco1)Nc1nc(-c2ccc(F)cc2)cs1	17.8 µM [rising, single point]	22.4 µM [rising, single point]
CCOc1ccc(-c2nnc(SCC(=O)NCc3ccccc3)nc2-c2ccc(OCC)c(OC)c2)cc1OC	0.224 µM [rising, partial curve, poor fit]	–
O=C(C1=C(O)C(=O)N(CCCN2CCOCC2)C1c1ccccn1)c1cccs1 (stereo not given)	10 µM [rising, partial curve, poor fit]	5.62 µM [rising, partial curve]
COc1cc(C(=O)Nc2ccc(S(=O)(=O)N3CCCCC3C)cc2)cc(OC)c1OC (stereo not given)	–	1.58 µM [falling, partial curve, poor fit]
CCC(=O)NCC(c1ccc2c(c1)OCO2)N1CCN(c2ccccc2)CC1 (stereo not given)	11.2 µM [falling, partial curve, poor fit]	–
O=C(CN1CCOCC1)N(c1ccccc1)c1ccc2ccccc2c1	15.8 µM [rising, partial curve, poor fit]	10 µM [rising, partial curve, poor fit]
COc1ccc(-c2[nH]nc3nc(-c4cc(OC)c(OC)c(OC)c4)cc(C(=O)O)c23)cc1	12.6 µM [rising, partial curve]	–
